The values that follow come from US20250075190A1, “DE NOVO DESIGNED LUCIFERASE” (UNIVERSITY OF WASHINGTON, priority 2022, published 2025).

The chains are these.
B1: LuxSit: de novo designed DTZ luciferase, 117 residues, SEQ ID NO:1 (protein)
chain: MSEEQIRQFLRRFYEALDSGDADTAASLFHPGVTIHLWDGVTFTSREEFREWFERLFSTRKDAQREIKSLEVRGDTVEVHVQLHATHNGQKHTVDATHHWHFRGNRVTEMRVHINPTG
modifications: VARIANT 1 optionally absent; VARIANT 118 optionally absent
B2: LuxSit-f: LuxSit variant A96M/M110V, SEQ ID NO:3, strong initial flash emission (protein)
chain: MSEEQIRQFLRRFYEALDSGDADTAASLFHPGVTIHLWDGVTFTSREEFREWFERLFSTRKDAQREIKSLEVRGDTVEVHVQLHATHNGQKHTVDMTHHWHFRGNRVTEVRVHINPTG
modifications: VARIANT 1 optionally absent; VARIANT 118 optionally absent
B3: LuxSit-i: LuxSit variant R60S/A96L/M110V, SEQ ID NO:2, named for high brightness (protein)
chain: MSEEQIRQFLRRFYEALDSGDADTAASLFHPGVTIHLWDGVTFTSREEFREWFERLFSTSKDAQREIKSLEVRGDTVEVHVQLHATHNGQKHTVDLTHHWHFRGNRVTEVRVHINPTG
modifications: VARIANT 1 optionally absent; VARIANT 118 optionally absent
B4: M110V: LuxSit mutant M110V (protein)
chain: MSEEQIRQFLRRFYEALDSGDADTAASLFHPGVTIHLWDGVTFTSREEFREWFERLFSTRKDAQREIKSLEVRGDTVEVHVQLHATHNGQKHTVDATHHWHFRGNRVTEVRVHINPTG
modifications: VARIANT 1 optionally absent; VARIANT 118 optionally absent
B5: A96M: LuxSit mutant A96M (protein)
chain: MSEEQIRQFLRRFYEALDSGDADTAASLFHPGVTIHLWDGVTFTSREEFREWFERLFSTRKDAQREIKSLEVRGDTVEVHVQLHATHNGQKHTVDMTHHWHFRGNRVTEMRVHINPTG
modifications: VARIANT 1 optionally absent; VARIANT 118 optionally absent

The nature of one series: Luminescence emission spectra of pure luciferases. It is filed as biochemical. The conditions noted are these: incubation with DTZ.
Molecule B1 registered a luminescence emission peak of roughly 480 nm.

The series is the same for the next values; noted with them: luminescence emission with DTZ.
B1 registered a λmax of 478 nm.
B2 displayed a λmax of 480 nm.
On the same count and under the same terms, for B3 the value was 482 nm; for B4, 480 nm; for B5, 476 nm.
